Data as given in the supplement of paper PMC12819154, “High-throughput peptide-centric local stability assay extends protein–ligand identification to membrane proteins, tissues and bacteria” (Nature Structural & Molecular Biology, 2025).
The list shows a part of the results. Small differences around the control level are noise.

The chains behind the UniProt entries cited, without tags or fusion partners. Where a name states a change or a piece, a line headed by the entry shows the natural chain unless it says otherwise.
UniProt Q58A45: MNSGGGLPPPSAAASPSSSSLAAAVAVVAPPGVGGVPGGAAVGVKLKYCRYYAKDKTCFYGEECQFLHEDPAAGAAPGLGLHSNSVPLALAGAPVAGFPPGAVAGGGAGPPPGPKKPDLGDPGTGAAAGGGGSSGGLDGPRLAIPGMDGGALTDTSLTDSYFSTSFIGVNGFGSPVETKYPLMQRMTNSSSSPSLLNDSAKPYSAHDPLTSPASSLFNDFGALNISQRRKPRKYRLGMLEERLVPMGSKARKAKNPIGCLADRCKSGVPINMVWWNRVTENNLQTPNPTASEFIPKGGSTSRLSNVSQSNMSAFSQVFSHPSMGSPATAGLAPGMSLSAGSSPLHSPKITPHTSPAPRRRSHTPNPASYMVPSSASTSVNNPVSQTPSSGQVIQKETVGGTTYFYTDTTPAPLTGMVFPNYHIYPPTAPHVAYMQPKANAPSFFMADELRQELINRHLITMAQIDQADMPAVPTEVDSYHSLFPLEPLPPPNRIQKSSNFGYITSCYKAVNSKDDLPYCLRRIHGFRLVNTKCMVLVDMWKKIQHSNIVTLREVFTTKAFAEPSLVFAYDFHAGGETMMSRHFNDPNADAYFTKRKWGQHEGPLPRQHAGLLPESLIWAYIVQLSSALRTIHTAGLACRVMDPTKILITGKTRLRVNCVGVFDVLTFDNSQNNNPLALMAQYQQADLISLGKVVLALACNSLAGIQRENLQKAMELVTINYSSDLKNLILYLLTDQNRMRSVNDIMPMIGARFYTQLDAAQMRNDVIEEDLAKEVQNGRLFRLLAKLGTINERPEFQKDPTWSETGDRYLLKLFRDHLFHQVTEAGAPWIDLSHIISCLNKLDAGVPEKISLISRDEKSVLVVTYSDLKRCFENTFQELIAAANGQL
UniProt Q53HL2: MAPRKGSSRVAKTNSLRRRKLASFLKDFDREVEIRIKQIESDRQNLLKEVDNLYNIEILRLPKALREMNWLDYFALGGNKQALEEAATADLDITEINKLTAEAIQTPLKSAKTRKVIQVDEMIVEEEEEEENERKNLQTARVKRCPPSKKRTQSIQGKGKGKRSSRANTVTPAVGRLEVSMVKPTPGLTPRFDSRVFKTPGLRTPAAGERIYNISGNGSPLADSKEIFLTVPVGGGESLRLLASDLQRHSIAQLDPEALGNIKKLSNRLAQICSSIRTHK
UniProt Q53H82: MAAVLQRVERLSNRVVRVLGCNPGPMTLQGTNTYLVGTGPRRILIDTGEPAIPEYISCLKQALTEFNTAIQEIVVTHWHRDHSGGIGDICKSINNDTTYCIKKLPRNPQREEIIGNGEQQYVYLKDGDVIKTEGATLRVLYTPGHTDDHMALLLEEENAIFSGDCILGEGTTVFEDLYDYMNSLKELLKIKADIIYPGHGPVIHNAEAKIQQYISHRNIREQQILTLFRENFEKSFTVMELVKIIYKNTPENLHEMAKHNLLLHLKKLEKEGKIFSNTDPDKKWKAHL
UniProt Q5UAW9: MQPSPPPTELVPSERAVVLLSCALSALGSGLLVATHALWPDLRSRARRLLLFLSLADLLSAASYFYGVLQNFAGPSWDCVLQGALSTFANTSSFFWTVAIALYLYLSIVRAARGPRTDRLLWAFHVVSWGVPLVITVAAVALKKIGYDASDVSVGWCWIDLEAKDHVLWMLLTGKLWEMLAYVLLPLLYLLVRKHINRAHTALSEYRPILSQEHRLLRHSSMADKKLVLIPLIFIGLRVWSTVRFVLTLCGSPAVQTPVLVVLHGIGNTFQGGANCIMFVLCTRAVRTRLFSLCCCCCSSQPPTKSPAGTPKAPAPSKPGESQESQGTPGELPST
UniProt Q5JR12: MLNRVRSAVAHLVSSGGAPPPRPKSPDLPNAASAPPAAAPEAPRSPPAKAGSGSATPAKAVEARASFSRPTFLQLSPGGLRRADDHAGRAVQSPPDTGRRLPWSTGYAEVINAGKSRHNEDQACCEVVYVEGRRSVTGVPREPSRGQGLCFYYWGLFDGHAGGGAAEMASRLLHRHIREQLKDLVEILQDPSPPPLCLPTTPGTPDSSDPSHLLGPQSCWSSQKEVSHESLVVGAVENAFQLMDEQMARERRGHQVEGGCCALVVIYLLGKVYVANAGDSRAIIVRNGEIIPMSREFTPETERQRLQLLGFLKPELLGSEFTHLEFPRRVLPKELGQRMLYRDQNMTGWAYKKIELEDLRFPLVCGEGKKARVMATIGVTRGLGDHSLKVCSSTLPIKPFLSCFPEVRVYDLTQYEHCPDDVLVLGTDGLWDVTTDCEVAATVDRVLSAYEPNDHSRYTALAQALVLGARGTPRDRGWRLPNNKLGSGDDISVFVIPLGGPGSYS
UniProt Q5T1V6: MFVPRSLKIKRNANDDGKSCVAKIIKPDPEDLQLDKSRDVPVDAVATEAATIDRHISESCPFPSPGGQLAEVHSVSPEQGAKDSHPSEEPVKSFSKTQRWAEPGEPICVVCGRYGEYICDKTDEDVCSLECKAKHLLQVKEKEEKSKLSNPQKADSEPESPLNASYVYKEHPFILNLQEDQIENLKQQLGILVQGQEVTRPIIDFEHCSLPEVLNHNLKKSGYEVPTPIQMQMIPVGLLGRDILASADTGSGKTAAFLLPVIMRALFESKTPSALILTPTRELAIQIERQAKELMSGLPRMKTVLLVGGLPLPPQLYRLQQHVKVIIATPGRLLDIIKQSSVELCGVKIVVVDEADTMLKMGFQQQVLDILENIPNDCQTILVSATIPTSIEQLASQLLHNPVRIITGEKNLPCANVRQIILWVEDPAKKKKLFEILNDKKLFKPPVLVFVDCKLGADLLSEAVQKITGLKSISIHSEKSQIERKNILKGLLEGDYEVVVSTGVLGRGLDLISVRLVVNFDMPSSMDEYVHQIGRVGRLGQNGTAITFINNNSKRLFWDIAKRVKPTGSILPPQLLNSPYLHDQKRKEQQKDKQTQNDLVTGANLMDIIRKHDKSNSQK
UniProt Q4G0N4: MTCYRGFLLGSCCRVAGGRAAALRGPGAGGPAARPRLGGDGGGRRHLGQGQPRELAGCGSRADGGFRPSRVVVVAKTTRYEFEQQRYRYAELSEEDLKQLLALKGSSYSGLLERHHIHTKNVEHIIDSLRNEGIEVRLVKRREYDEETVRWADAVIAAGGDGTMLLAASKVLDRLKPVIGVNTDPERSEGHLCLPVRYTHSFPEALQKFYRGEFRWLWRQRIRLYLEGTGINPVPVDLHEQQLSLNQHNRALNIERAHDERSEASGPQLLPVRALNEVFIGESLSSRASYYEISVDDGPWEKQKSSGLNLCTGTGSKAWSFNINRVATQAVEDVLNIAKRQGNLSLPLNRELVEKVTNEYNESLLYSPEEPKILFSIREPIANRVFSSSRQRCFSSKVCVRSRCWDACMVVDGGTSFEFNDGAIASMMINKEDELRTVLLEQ
UniProt Q5U5Q3: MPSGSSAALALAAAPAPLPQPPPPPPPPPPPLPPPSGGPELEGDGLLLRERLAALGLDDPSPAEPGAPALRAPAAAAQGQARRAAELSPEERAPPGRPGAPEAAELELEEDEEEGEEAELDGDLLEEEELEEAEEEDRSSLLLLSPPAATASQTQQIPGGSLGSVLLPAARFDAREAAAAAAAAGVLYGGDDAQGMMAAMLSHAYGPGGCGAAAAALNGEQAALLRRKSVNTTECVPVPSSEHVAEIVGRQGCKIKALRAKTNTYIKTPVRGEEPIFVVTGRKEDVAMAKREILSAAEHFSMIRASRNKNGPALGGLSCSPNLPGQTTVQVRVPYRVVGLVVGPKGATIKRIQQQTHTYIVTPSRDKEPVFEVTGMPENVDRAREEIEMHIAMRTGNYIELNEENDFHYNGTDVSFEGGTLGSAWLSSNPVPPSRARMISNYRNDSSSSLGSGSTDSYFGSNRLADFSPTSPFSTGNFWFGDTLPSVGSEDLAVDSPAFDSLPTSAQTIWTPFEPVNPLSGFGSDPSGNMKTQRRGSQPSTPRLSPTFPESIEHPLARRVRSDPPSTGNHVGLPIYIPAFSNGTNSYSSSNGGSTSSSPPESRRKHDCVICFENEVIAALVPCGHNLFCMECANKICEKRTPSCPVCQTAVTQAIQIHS
UniProt Q5JWR5: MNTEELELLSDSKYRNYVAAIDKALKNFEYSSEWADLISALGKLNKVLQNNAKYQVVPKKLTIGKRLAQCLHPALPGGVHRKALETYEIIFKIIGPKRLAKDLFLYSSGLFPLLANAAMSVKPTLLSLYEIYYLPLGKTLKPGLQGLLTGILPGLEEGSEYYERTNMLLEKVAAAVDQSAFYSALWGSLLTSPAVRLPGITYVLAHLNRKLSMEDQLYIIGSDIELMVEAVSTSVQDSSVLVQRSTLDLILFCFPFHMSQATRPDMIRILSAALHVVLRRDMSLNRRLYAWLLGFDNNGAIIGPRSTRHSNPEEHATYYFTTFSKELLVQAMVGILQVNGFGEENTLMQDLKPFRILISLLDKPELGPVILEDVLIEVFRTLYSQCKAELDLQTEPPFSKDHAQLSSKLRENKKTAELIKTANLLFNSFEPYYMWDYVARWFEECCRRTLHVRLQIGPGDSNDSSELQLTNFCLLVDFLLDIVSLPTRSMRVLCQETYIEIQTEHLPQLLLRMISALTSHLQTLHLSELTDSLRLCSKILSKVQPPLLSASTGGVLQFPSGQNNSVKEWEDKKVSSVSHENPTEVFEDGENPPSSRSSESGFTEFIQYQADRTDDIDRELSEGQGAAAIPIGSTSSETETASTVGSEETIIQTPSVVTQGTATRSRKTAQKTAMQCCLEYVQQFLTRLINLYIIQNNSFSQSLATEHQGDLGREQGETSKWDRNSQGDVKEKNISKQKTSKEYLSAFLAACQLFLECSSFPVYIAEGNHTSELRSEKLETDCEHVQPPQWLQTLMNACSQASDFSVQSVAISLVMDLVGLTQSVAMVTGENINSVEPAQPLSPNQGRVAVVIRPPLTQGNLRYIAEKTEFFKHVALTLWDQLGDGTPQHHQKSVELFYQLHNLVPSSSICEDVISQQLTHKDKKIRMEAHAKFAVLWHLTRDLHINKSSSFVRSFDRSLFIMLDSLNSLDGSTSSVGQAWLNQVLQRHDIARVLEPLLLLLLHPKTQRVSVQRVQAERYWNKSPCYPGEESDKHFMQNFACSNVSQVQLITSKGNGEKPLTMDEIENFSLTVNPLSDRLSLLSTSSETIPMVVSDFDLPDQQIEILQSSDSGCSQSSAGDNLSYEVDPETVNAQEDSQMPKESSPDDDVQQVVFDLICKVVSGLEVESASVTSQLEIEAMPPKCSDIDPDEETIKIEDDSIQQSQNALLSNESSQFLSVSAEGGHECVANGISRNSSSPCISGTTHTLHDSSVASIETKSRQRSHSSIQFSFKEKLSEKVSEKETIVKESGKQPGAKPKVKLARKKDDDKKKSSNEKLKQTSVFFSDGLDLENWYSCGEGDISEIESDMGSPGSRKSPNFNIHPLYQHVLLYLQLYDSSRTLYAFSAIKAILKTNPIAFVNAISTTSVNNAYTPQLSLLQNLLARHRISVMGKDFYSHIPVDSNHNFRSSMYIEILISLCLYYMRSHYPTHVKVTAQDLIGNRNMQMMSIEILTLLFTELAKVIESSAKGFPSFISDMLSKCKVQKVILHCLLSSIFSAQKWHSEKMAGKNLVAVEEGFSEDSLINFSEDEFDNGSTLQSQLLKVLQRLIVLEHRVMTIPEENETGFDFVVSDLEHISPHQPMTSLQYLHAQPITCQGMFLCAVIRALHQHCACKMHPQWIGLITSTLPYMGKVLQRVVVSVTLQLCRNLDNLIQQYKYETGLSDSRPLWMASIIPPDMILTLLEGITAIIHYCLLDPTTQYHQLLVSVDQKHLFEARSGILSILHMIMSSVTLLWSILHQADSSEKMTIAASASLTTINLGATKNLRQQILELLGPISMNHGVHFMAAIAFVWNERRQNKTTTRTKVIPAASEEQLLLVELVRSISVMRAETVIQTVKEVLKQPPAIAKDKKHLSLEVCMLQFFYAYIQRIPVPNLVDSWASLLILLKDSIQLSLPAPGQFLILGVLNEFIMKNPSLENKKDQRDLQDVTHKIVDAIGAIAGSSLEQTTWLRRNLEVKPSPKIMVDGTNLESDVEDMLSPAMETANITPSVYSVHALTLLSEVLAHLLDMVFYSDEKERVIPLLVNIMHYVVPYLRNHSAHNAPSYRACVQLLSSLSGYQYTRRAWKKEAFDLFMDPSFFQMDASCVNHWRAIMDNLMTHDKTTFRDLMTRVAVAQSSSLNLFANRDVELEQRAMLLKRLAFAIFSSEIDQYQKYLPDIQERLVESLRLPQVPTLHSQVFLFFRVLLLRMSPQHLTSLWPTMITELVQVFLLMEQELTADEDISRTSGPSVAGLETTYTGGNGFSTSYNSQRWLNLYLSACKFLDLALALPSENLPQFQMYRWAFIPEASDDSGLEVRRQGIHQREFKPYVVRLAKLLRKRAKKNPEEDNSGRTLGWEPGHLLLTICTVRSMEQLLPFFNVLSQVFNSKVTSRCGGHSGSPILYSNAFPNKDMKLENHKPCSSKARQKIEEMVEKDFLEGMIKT
UniProt Q5JRK9: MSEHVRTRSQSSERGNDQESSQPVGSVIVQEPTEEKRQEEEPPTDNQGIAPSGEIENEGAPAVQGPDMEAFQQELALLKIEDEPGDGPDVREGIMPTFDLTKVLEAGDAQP

What follows are targets tested with Cc1nc(Nc2ncc(C(=O)Nc3c(C)cccc3Cl)s2)cc(N2CCN(CCO)CC2)n1 [dasatinib] (assay: log2 fold change of tryptic peptide abundance, ligand vs vehicle (limited proteolysis) (log2 ratio); higher = more trypsin-susceptible (destabilized)). Conditions: ligand concentration: 5 uM; sample: K562 cleared lysate.
With “C3orf38 (peptide sequence: TEDIHLFQQQVK, peptide start residue: 117) (UniProt Q5JPI3)” the log2 fold change was 0.15. In the case of “IQSEC2 (peptide sequence: GVDNGEDIPR, peptide start residue: 917) (UniProt Q5JU85)”, the log2 fold change is reported as 0.587. “PAN3 (peptide sequence: KIQHSNIVTLR, peptide start residue: 542) (UniProt Q58A45)” showed a log2 fold change of -0.305. “CDCA8 (peptide sequence: LLASDLQR, peptide start residue: 241) (UniProt Q53HL2)” showed a log2 fold change of -0.422. Target “STXBP5 (peptide sequence: YTYDEAIHSVAWHHEGK, peptide start residue: 234) (UniProt Q5T5C0)” has a log2 fold change of -0.558. “UniProt Q4KMZ1 (peptide sequence: DRTTGELEQEDDSCHR, peptide start residue: 235)” gave a log2 fold change of -0.0832. “TPRN (peptide sequence: GSNTFTVVPK, peptide start residue: 497) (UniProt Q4KMQ1)” showed a log2 fold change of -0.326. Work on “UniProt Q5T7W7 (peptide sequence: FSYFPSYVDK, peptide start residue: 332)” yielded a log2 fold change of -0.27. “LACTB2 (peptide sequence: DHSGGIGDICK, peptide start residue: 81) (UniProt Q53H82)” gave a log2 fold change of -0.29. “RIF1 (peptide sequence: MTGEEGKEVITEIEKK, peptide start residue: 37) (UniProt Q5UIP0)” showed a log2 fold change of 0.276. With “MINDY4 (peptide sequence: GMMSGPIASSPQDSFHR, peptide start residue: 210) (UniProt Q4G0A6)” the log2 fold change was 0.258. “UniProt Q5UAW9 (peptide sequence: SPAGTPK, peptide start residue: 306)” was tested, and the log2 fold change was -0.303. With “UniProt Q5QP82 (peptide sequence: YTEDGCPHKK, peptide start residue: 285)” the log2 fold change was 0.764. “UniProt Q5TEJ8 (peptide sequence: TLLQVLQDPALK, peptide start residue: 177)” showed a log2 fold change of 0.114. In the case of “CC2D1B (peptide sequence: FEFHYPNSDQAQK, peptide start residue: 728) (UniProt Q5T0F9)”, the log2 fold change is reported as -0.546. In the case of “AARS2 (peptide sequence: QGLWLDVHALGELQR, peptide start residue: 490) (UniProt Q5JTZ9)”, the log2 fold change is reported as 0.315. In the case of “SP6 (peptide sequence: AGGAVEPPGGK, peptide start residue: 353) (UniProt Q3SY56)”, the log2 fold change is reported as -0.508. Work on “HABP4 (peptide sequence: KSLPAPVAQRPDSPGGGLQAPGQK, peptide start residue: 96) (UniProt Q5JVS0)” yielded a log2 fold change of 0.473. With “PPM1J (peptide sequence: HNEDQACCEVVYVEGR, peptide start residue: 118) (UniProt Q5JR12)” the log2 fold change was 0.27. “DDX59 (peptide sequence: QIILWVEDPAKK, peptide start residue: 419) (UniProt Q5T1V6)” showed a log2 fold change of -0.657. Work on “UniProt Q4G0N4 (peptide sequence: ILFSIREPIANR, peptide start residue: 373)” yielded a log2 fold change of -0.0634. In the case of “MEX3C (peptide sequence: EILSAAEHFSMIR, peptide start residue: 292) (UniProt Q5U5Q3)”, the log2 fold change is reported as 0.28. “UniProt Q5JVG2 (peptide sequence: IHTGEKPYECSDCGK, peptide start residue: 243)” gave a log2 fold change of 0.818. “DOP1A (peptide sequence: AIMDNLMTHDKTTFR, peptide start residue: 2133) (UniProt Q5JWR5)” showed a log2 fold change of -0.59. With “C2CD3 (peptide sequence: ENTEPSSTQFQVPSRPR, peptide start residue: 197) (UniProt Q4AC94)” the log2 fold change was -0.359. “UniProt Q5T440 (peptide sequence: YLQGVPEGVR, peptide start residue: 224)” was tested, and the log2 fold change was 0.068. “TOR1AIP1 (peptide sequence: MQNDSILK, peptide start residue: 301) (UniProt Q5JTV8)” was tested, and the log2 fold change was -0.45. In the case of “PAGE2B (peptide sequence: EGIMPTFDLTK, peptide start residue: 92) (UniProt Q5JRK9)”, the log2 fold change is reported as 0.0683. “RBM48 (peptide sequence: NSVACPGAQK, peptide start residue: 254) (UniProt Q5RL73)” gave a log2 fold change of -0.35. In the case of “FILIP1L (peptide sequence: RISDPQVFSK, peptide start residue: 789) (UniProt Q4L180)”, the log2 fold change is reported as -0.657. With “EPC2 (peptide sequence: QQLAQLQQK, peptide start residue: 596) (UniProt Q52LR7)” the log2 fold change was 0.73. Target “HS1BP3 (peptide sequence: YSEIEEFYQK, peptide start residue: 71) (UniProt Q53T59)” has a log2 fold change of -0.155. Work on “UniProt Q5T089 (peptide sequence: HGPGQMLFQNGDKYDGDWVR, peptide start residue: 142)” yielded a log2 fold change of -0.179. With “DNTTIP2 (peptide sequence: SLSEINKPNFYNNDFDDDFSHR, peptide start residue: 251) (UniProt Q5QJE6)” the log2 fold change was -0.351. With “UniProt Q5JTJ3 (peptide sequence: CLDENLEDASQCKK, peptide start residue: 68)” the log2 fold change was 0.148. “UniProt Q5T7B8 (peptide sequence: KKPEESAPLCSEK, peptide start residue: 660)” showed a log2 fold change of -0.369. “CRTC2 (peptide sequence: KLSSSSSRPR, peptide start residue: 234) (UniProt Q53ET0)” gave a log2 fold change of -1.21.
